# Some results were stated once for a whole list of compounds, not compound by compound.
# System: AmP and ACE
# Assay: Mean systemic arterial blood pressure effects of BK injected i.v. or i.a. (log dose-response curves)
# Conditions: AmP saturated with inhibitor or alternative substrate
substance,measurement,value
"des-Arg^9-BK: alternative AmP substrate, bradykinin lacking Arg9 (RPPGFSPF)",potentiation of blood pressure effects of i.v. BK,up to 4 fold

# — patent publication US6399349B1, “Human aminopeptidase P gene” (priority 1997, dated 2002)
